{"source": "patent US20210054084A1", "about": "(published 2021)", "key": {"[1]": {"target": "recombinant human CD25 (ELISA antigen) (human) (UniProt P01589)", "assay": "ELISA, scFv on rhCD25; positive = OD above 3 times background"}, "[2]": {"target": "recombinant human CD25 (ELISA antigen) (human) (UniProt P01589)", "assay": "summary of the Table 3 assays (ELISA, flow cytometry)"}, "[3]": {"target": "T1, recombinant human CD25 his tagged (UniProt P01589 22-213)", "T1 chain": "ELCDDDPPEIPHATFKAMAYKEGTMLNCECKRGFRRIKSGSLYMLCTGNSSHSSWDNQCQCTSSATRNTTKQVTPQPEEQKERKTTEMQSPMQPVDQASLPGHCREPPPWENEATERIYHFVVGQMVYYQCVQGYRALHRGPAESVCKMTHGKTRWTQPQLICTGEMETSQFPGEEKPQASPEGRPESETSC", "assay": "Octet sequential binding, rhCD25 his on Ni-NTA biosensors"}, "[4]": {"target": "T1, recombinant human CD25 his tagged", "assay": "BLI, Octet Red 96, antibody on AHC biosensor"}}, "note": "No constants are given. Whether binding was seen depends on the method and setting. Some entries that bind do so weakly or less than the wild type."}
{"binder": "Antibody 2 (scFv in bacterial supernatant) (scFv, V domains shown, not shown: large carriers; small tags and cut ends) VH: EVQLLESGGGLVQPGGSLRLSCAASGFSVDIYDMSWVRQAPGKGLEWVAYISSSLGATYYADSVKGRFTISRDNSKNTLYLQMNSLRAEDTAVYYCARERIYSVYTLDYYAMDLWGQGTLVTVSS VL: DIQMTQSPSSLSASVGDRVTITCQASQGITNNLNWYQQKPGKVPKLLIYAASTLQSGVPSRFSGSGSGTDFTLTISSLQPEDVATYYCQQGYTTSNVDNAFGGGTKVEIK", "values": [{"measurement": "binding", "setting": "[1]", "value": "binds"}, {"measurement": "binding", "setting": "[2]", "value": "binds"}]}
{"binder": "Antibody 1 (scFv in bacterial supernatant) (scFv, V domains shown, not shown: large carriers; small tags and cut ends) VH: EVQLVESGGGLIQPGGSLRLSCAASGFTLDSYGVSWVRQAPGKGLEWVGVTSSGGSAYYADSVKGRFTISRDNSKNTLYLQMNSLRAEDTAVYYCARDRYVYTGGYLYHYGMDLWGQGTLVTVSS VL: DIQMTQSPSSLSASVGDRVTITCRASQSISDYLAWYQQKPGKVPKLLIYAASTLPFGVPSRFSGSGSGTDFTLTISSLQPEDVATYYCQGTYDSSDWYWAFGGGTKVEIK", "values": [{"measurement": "binding", "setting": "[1]", "value": "binds"}, {"measurement": "binding", "setting": "[2]", "value": "binds"}]}
{"binder": "Antibody 1 as human IgG1 expressed in mammalian cells (antibody, V domains shown) VH: EVQLVESGGGLIQPGGSLRLSCAASGFTLDSYGVSWVRQAPGKGLEWVGVTSSGGSAYYADSVKGRFTISRDNSKNTLYLQMNSLRAEDTAVYYCARDRYVYTGGYLYHYGMDLWGQGTLVTVSS VL: DIQMTQSPSSLSASVGDRVTITCRASQSISDYLAWYQQKPGKVPKLLIYAASTLPFGVPSRFSGSGSGTDFTLTISSLQPEDVATYYCQGTYDSSDWYWAFGGGTKVEIK", "values": [{"measurement": "binding", "setting": "[3]", "value": "binds"}, {"measurement": "binding", "setting": "[4]", "value": "binds"}]}
